According to the supplement of paper PMC10849652:
The list shows a part of the results.

Chains of the proteins cited; added tags and fusions are not shown. Lines headed by an entry give the natural chain unless they say otherwise; changes in a name come on top.
UniProt P61604, whole entry, looked up: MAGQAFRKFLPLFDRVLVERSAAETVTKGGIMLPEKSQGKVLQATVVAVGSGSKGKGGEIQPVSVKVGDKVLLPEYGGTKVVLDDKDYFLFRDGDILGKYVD
UniProt Q12906, whole entry, looked up: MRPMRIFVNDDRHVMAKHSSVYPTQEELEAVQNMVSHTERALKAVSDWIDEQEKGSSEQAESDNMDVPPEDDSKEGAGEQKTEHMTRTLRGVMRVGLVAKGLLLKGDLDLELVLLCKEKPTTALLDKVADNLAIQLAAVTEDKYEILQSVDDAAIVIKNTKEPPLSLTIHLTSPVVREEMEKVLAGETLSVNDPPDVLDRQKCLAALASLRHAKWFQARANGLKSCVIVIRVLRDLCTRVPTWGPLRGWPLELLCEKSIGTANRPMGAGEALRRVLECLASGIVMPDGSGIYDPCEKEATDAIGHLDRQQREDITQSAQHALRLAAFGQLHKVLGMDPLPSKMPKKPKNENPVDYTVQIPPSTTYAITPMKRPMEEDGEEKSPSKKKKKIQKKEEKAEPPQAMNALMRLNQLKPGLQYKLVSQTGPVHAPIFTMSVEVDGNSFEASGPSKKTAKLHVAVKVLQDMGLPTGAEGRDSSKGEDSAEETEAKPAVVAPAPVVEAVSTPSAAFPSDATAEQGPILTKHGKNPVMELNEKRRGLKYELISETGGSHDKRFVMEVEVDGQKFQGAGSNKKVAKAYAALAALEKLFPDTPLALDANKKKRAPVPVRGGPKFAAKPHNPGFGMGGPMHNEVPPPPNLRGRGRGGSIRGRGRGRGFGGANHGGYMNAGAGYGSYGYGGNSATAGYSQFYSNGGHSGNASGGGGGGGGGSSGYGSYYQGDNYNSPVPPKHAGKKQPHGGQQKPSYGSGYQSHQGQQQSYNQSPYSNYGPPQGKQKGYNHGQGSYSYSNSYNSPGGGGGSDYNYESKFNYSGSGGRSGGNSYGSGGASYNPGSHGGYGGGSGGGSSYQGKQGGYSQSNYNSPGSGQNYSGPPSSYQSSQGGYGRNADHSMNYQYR
UniProt Q13418: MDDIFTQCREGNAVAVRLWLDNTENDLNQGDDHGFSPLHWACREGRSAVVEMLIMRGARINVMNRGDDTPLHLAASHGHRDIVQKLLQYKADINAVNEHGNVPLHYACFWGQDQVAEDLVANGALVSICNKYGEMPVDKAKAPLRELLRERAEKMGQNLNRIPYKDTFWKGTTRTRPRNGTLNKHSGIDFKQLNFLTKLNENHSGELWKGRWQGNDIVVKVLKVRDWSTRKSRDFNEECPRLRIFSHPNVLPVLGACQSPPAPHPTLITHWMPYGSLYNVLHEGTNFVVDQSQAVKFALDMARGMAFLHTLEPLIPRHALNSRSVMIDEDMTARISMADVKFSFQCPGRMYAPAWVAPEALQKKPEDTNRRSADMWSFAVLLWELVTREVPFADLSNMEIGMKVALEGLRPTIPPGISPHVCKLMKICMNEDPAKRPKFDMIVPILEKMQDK
UniProt Q13907: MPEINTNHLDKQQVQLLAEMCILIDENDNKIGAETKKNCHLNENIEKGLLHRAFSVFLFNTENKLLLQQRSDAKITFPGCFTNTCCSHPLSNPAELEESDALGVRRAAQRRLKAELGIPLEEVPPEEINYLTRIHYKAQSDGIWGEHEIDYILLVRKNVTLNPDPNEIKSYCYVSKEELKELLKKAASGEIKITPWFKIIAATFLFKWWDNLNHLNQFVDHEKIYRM
UniProt Q9NVM9, whole entry, looked up: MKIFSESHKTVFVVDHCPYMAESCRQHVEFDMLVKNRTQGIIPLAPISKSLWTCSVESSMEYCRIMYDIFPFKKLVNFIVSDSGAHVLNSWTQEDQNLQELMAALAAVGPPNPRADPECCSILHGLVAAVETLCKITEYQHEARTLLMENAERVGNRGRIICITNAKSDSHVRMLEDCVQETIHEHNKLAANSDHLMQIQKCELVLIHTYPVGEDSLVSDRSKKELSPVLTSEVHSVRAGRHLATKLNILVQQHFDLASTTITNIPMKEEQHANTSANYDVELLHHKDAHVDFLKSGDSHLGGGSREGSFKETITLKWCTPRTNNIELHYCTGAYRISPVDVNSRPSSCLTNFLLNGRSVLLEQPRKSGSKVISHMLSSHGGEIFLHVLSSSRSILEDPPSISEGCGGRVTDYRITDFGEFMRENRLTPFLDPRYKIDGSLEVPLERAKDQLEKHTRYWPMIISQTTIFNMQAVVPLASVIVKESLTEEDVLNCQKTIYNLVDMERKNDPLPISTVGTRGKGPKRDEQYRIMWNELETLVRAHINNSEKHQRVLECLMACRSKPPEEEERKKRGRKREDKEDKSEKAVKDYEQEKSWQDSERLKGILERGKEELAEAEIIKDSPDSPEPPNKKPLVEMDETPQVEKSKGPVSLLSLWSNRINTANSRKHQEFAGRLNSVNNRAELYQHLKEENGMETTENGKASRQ
UniProt P50213: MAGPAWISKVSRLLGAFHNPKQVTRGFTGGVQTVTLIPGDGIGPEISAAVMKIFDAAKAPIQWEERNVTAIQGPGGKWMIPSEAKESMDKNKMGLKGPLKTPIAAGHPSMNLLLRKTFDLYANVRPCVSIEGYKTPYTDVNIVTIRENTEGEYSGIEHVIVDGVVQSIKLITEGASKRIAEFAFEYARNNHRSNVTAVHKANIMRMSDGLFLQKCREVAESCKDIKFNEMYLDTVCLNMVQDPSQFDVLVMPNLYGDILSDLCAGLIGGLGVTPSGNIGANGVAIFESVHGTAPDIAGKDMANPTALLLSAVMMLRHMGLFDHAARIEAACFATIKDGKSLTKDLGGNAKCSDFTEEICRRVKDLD
UniProt Q14116, whole entry, looked up: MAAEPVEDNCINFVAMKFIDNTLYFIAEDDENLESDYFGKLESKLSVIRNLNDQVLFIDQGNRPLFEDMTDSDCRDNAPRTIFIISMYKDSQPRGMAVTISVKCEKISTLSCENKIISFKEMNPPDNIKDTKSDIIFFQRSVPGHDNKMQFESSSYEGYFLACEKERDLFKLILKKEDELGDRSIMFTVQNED

Tests used:
Assay in all cases: log2 fold change, soluble protein after heating vs DMSO (PISA); higher = thermal stabilisation; K562 lysate, 10 uM; active = over 0.2 and 3.5 SD of the protein, either way, in both replicates (recomputed)
ibrutinib = compound: C=CC(=O)N1CCC[C@@H](n2nc(-c3ccc(Oc4ccccc4)cc3)c3c(N)ncnc32)C1 [ibrutinib]
Summary of the method: (§1)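 Values give the log-two fold change in thermal stability against solvent controls, from duplicates. Crude K562 extract at 1 mg/mL protein, made by dounce homogenisation in PBS pH 7.4 with 1 mM MgCl2, was treated with 10 μM compound for 30 min. After 3 min heating across 48°C-58°C, aliquots were pooled, adjusted to 0.5% NP-40 at 4°C and centrifuged at 21,000xg for 90 min. The supernatant was measured by TMTpro 16plex LC-MS/MS with channel sums equalised.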

[1] = compound: CC(=O)c1cnc2ccc(-c3cc(Cl)c(O)c(Cl)c3)nc2c1N[C@H]1CC[C@H](CN(C)C)CC1
Summary of the method: as §1

ralimetinib = compound: CC(C)(C)Cn1c(N)nc2ccc(-c3[nH]c(C(C)(C)C)nc3-c3ccc(F)cc3)nc21 [ralimetinib]
Summary of the method: as §1

[2] = compound: CC(C)(O)CC(=O)NCCn1ccc2ncnc(Nc3ccc(Oc4cccc(C(F)(F)F)c4)c(Cl)c3)c21
Summary of the method: as §1

[3] = compound: CC(C)C1=C2N=C(C=C(N2N=C1)NCC3=CC=CC=C3)NCCCCCCN
Summary of the method: as §1

[4] = compound: CC1=C(C(CC(=O)N1)C2=CC=C(C=C2)C(F)(F)F)C(=O)NC3=C(C=C4C(=C3)C=NN4)F
Summary of the method: as §1

[5] = compound: CC1=C(C2=C(C=C1)C(=O)C3=CC=CC=C3N2CCCN)C
Summary of the method: as §1

[6] = compound: CC1=C(C=C(C=C1)NC(=O)C2=CC(=CC=C2)C(C)(C)C#N)NC3=CC4=C(C=C3)N=CN(C4=O)C
Summary of the method: as §1

[7] = compound: CC1=C(C=C(C=C1)NC(=O)C2=CC(=CC=C2)N(C)C)NC(=O)C3=CC=C(C=C3)O
Summary of the method: as §1

[8] = compound: CC1=CC=C(C=C1)SC2=C3C=C(SC3=CN=C2)C(=O)N
Summary of the method: as §1

vemurafenib = compound: CCCS(=O)(=O)Nc1ccc(F)c(C(=O)c2c[nH]c3ncc(-c4ccc(Cl)cc4)cc23)c1F [vemurafenib]
Summary of the method: as §1

[9] = compound: CCCS(=O)(=O)Nc1ccc(F)c(C(=O)c2c[nH]c3ncc(Cl)cc23)c1F
Summary of the method: as §1

barasertib = compound: CCN(CCCOc1ccc2c(Nc3cc(CC(=O)Nc4cccc(F)c4)[nH]n3)ncnc2c1)CCOP(=O)(O)O [barasertib]
Summary of the method: as §1

[10] = compound: CC[C@@H]1C(=O)N(C)c2cnc(Nc3ccc(C(=O)NC4CCN(C)CC4)cc3OC)nc2N1C1CCCC1
Summary of the method: as §1

volasertib = compound: CC[C@@H]1C(=O)N(C)c2cnc(Nc3ccc(C(=O)N[C@H]4CC[C@H](N5CCN(CC6CC6)CC5)CC4)cc3OC)nc2N1C(C)C [volasertib]
Summary of the method: as §1

[11] = compound: CCn1c(C(=O)N(C2CC2)C2CC2)cc2c3c(ncn3C)c(Nc3cc(C)n(C)n3)nc21
Summary of the method: as §1

[12] = compound: CCn1cc(-c2ccnc3[nH]c(-c4cccc(CN(C)C)c4)cc23)c(-c2ccc(NC(=O)N(C)C)cc2)n1
Summary of the method: as §1

[13] = compound: CN1CCC(CNc2ccc3ncc(-c4cccc(OC(F)(F)F)c4)n3n2)CC1
Summary of the method: as §1

saracatinib = compound: CN1CCN(CCOc2cc(OC3CCOCC3)c3c(Nc4c(Cl)ccc5c4OCO5)ncnc3c2)CC1 [saracatinib]
Summary of the method: as §1

sotrastaurin = compound: CN1CCN(c2nc(C3=C(c4c[nH]c5ccccc45)C(=O)NC3=O)c3ccccc3n2)CC1 [sotrastaurin]
Summary of the method: as §1

Measured: log2 fold change

HSPE1 (UniProt P61604)
inactive: ibrutinib -0.012 | [1] 0.035 | ralimetinib -0.029 | [2] -0.009 | [3] 0.024 | [4] -0.107 | [5] 0.029 | [6] 0.015 | [7] -0.018 | [8] 0.017 | vemurafenib -0.009 | [9] -0.02 | barasertib 0.086 | [10] -0.01 | volasertib 0.064 | [11] 0.004 | [12] -0.038 | [13] -0.031 | saracatinib -0.004 | sotrastaurin -0.017

ILF3 isoform 7 (UniProt Q12906)
inactive: ibrutinib -0.004 | [1] -0.037 | ralimetinib -0.002 | [2] -0.017 | [3] -0.002 | [4] -0.018 | [5] -0.066 | [6] -0.006 | [7] 0.013 | [8] 0.02 | vemurafenib -0.002 | [9] 0 | barasertib -0.029 | [10] 0.005 | volasertib 0.009 | [11] 0.021 | [12] -0.043 | [13] 0.031 | saracatinib 0.011 | sotrastaurin -0.001

ILK (UniProt Q13418)
inactive: ibrutinib 0.017 | [1] 0.006 | ralimetinib 0 | [2] -0.022 | [3] -0.007 | [4] 0.013 | [5] -0.02 | [6] 0.049 | [7] -0.001 | [8] 0.057 | vemurafenib 0.029 | [9] -0.024 | barasertib 0.059 | [10] -0.03 | volasertib -0.072 | [11] 0.016 | [12] -0.034 | [13] -0.019 | saracatinib 0.011 | sotrastaurin -0.002

IDI1 (UniProt Q13907)
inactive: ibrutinib 0.02 | [1] -0.009 | ralimetinib -0.012 | [2] -0.006 | [3] -0.003 | [4] -0.019 | [5] -0.022 | [6] 0.139 | [7] 0.013 | [8] -0.02 | vemurafenib -0.009 | [9] 0.001 | barasertib 0.022 | [10] 0.081 | volasertib 0 | [11] -0.017 | [12] -0.175 | [13] 0.048 | saracatinib -0.035 | sotrastaurin -0.101

INTS13 (UniProt Q9NVM9)
inactive: ibrutinib 0.01 | [1] -0.007 | ralimetinib 0.034 | [2] -0.008 | [3] -0.01 | [4] -0.018 | [5] 0.006 | [6] -0.011 | [7] 0.028 | [8] 0.018 | vemurafenib -0.029 | [9] 0.026 | barasertib 0.014 | [10] 0.004 | volasertib -0.045 | [11] 0.005 | [12] -0.018 | [13] -0.024 | saracatinib 0.026 | sotrastaurin 0.006

IDH3A (UniProt P50213)
inactive: ibrutinib 0 | [1] -0.004 | ralimetinib -0.003 | [2] 0 | [3] 0 | [4] -0.017 | [5] -0.013 | [6] 0.009 | [7] 0.005 | [8] -0.006 | vemurafenib -0.003 | [9] 0.013 | barasertib 0.019 | [10] -0.028 | volasertib 0.009 | [11] 0.012 | [12] 0.074 | [13] -0.035 | saracatinib -0.015 | sotrastaurin -0.016

HSPA8 (UniProt E9PK54)
inactive: ibrutinib 0.065 | [1] -0.086 | ralimetinib -0.013 | [2] -0.132 | [3] 0.004 | [4] -0.019 | [5] 0.008 | [6] -0.076 | [7] -0.019 | [8] 0.014 | vemurafenib -0.047 | [9] 0.014 | barasertib -0.113 | [10] -0.071 | volasertib -0.056 | [11] 0.08 | [12] -0.144 | [13] 0.052 | saracatinib 0.108 | sotrastaurin 0.028

IL18 (UniProt Q14116)
inactive: ibrutinib 0.029 | [1] -0.012 | ralimetinib 0.027 | [2] -0.055 | [3] 0.025 | [4] -0.01 | [5] 0.031 | [6] -0.048 | [7] -0.027 | [8] -0.036 | vemurafenib -0.007 | [9] 0.004 | barasertib 0.021 | [10] 0.016 | volasertib 0.021 | [11] 0.012 | [12] -0.146 | [13] 0.018 | saracatinib 0.002 | sotrastaurin 0.016
